Patent US20210205365A1, “Chimeric Growth Factor Receptors” (Instil Bio (UK) Ltd., priority 2018, published 2021)

B1: TpoR.IL2rβ-cyt.TpoR-cyt: SEQ ID NO: 4; TpoR EC and TM, IL2rB cytoplasmic domain, N-terminally truncated TpoR cytoplasmic domain (protein)
chain: MPSWALFMVTSCLLLAPQNLAQVSSQDVSLLASDSEPLKCFSRTFEDLTCFWDEEEAAPSGTYQLLYAYPREKPRACPLSSQSMPHFGTRYVCQFPDQEEVRLFFPLHLWVKNVFLNQTRTQRVLFVDSVGLPAPPSIIKAMGGSQPGELQISWEEPAPEISDFLRYELRYGPRDPKNSTGPTVIQLIATETCCPALQRPHSASALDQSPCAQPTMPWQDGPKQTSPSREASALTAEGGSCLISGLQPGNSYWLQLRSEPDGISLGGSWGSWSLPVTVDLPGDAVALGLQCFTLDLKNVTCQWQQQDHASSQGFFYHSRARCCPRDRYPIWENCEEEEKTNPGLQTPQFSRCHFKSRNDSIIHILVEVTTAPGTVHSYLGSPFWIHQAVRLPTPNLHWREISSGHLELEWQHPSSWAAQETCYQLRYTGEGHQDWKVLEPPLGARGGTLELRPRSRYRLQLRARLNGPTYQGPWSSWSDPTRVETATETAWISLVTALHLVLGLSAVLGLLLLNCRNTGPWLKKVLKCNTPDPSKFFSQLSSEHGGDVQKWLSSPFPSSSFSPGGLAPEISPLEVLERDKVTQLLLQQDKVPEPASLSSNHSLTSCFTNQGYFFFHLPDALEIEACQVYFTYDPYSEEDPDEGVAGAPTGSSPQPLQPLSGEDDAYCTFPSRDDLLLFSPSLLGGPSPPSTAPGGSGAGEERMPPSLQERVLGQYLRDTAALSPPKATVSDTCEEVEPSLLEILPKSSERTPLPLCSSQAQMDYRRLQPSCLGTMPLSVCPPMAESGSCCTTHIANHSYLPLSYWQQP
modifications: TpoR.IL2rB-cyt.TpoR-cyt; MISC_FEATURE (1)..(491): TpoR Extracellular Domain; MISC_FEATURE (492)..(513): TpoR Transmembrane Domain; MISC_FEATURE (514)..(709): IL2rB Cytoplasmic Domain; MISC_FEATURE (710)..(808): TpoR Cytoplasmic Domain with N-terminal Truncation
B2: TpoR.SLAM: SEQ ID NO: 5; TpoR fused to SLAM cytoplasmic domain (protein)
chain: MPSWALFMVTSCLLLAPQNLAQVSSQDVSLLASDSEPLKCFSRTFEDLTCFWDEEEAAPSGTYQLLYAYPREKPRACPLSSQSMPHFGTRYVCQFPDQEEVRLFFPLHLWVKNVFLNQTRTQRVLFVDSVGLPAPPSIIKAMGGSQPGELQISWEEPAPEISDFLRYELRYGPRDPKNSTGPTVIQLIATETCCPALQRPHSASALDQSPCAQPTMPWQDGPKQTSPSREASALTAEGGSCLISGLQPGNSYWLQLRSEPDGISLGGSWGSWSLPVTVDLPGDAVALGLQCFTLDLKNVTCQWQQQDHASSQGFFYHSRARCCPRDRYPIWENCEEEEKTNPGLQTPQFSRCHFKSRNDSIIHILVEVTTAPGTVHSYLGSPFWIHQAVRLPTPNLHWREISSGHLELEWQHPSSWAAQETCYQLRYTGEGHQDWKVLEPPLGARGGTLELRPRSRYRLQLRARLNGPTYQGPWSSWSDPTRVETATETAWISLVTALHLVLGLSAVLGLLLLRWQFPAHYRRLRHALWPSLPDLHRVLGQYLRDTAALSPPKATVSDTCEEVEPSLLEILPKSSERTPLPLCSSQAQMDYRRLQPSCLGTMPLSVCPPMAESGSCCTTHIANHSYLPLSYWQQPRRRGKTNHYQTTVEKKSLTIYAQVQKPGPLQKKLDSFPAQDPCTTIYVAATEPVPESVQETNSITVYASVTLPES
modifications: TpoR.SLAM; MISC_FEATURE (1)..(491): TpoR Extraceullular Domain; MISC_FEATURE (492)..(513): TpoR Transmembrane Domain; MISC_FEATURE (514)..(635): TpoR Cytoplasmic Domain; MISC_FEATURE (636)..(710): SLAM Cytoplasmic Domain
B3: TpoR.TIAF1: SEQ ID NO: 8; TpoR fused to TIAF1 cytoplasmic domain (protein)
chain: MPSWALFMVTSCLLLAPQNLAQVSSQDVSLLASDSEPLKCFSRTFEDLTCFWDEEEAAPSGTYQLLYAYPREKPRACPLSSQSMPHFGTRYVCQFPDQEEVRLFFPLHLWVKNVFLNQTRTQRVLFVDSVGLPAPPSIIKAMGGSQPGELQISWEEPAPEISDFLRYELRYGPRDPKNSTGPTVIQLIATETCCPALQRPHSASALDQSPCAQPTMPWQDGPKQTSPSREASALTAEGGSCLISGLQPGNSYWLQLRSEPDGISLGGSWGSWSLPVTVDLPGDAVALGLQCFTLDLKNVTCQWQQQDHASSQGFFYHSRARCCPRDRYPIWENCEEEEKTNPGLQTPQFSRCHFKSRNDSIIHILVEVTTAPGTVHSYLGSPFWIHQAVRLPTPNLHWREISSGHLELEWQHPSSWAAQETCYQLRYTGEGHQDWKVLEPPLGARGGTLELRPRSRYRLQLRARLNGPTYQGPWSSWSDPTRVETATETAWISLVTALHLVLGLSAVLGLLLLRWQFPAHYRRLRHALWPSLPDLHRVLGQYLRDTAALSPPKATVSDTCEEVEPSLLEILPKSSERTPLPLCSSQAQMDYRRLQPSCLGTMPLSVCPPMAESGSCCTTHIANHSYLPLSYWQQPMSSPSSPFREQSFLCAAGDAGEESRVQVLKNEVRRGSPVLLGWVEQAYADKCVCGPSAPPAPTPPSLSQRVMCNDLFKVNPFQLQQFRADPSTASLLLCPGGLDHKLNLRGKAWG
modifications: TpoR-TIAF1; MISC_FEATURE (1)..(491): TpoR Extracellular Domain; MISC_FEATURE (492)..(513): TpoR Transmembrane Domain; MISC_FEATURE (514)..(635): TpoR Cytoplasmic Domain; MISC_FEATURE (636)..(750): TIAF1 Cytoplasmic Domain

These molecules were tested on Jurkat E6.1 cells (assay: Expression of CrGFR in transduced Jurkat E6.1 cells (anti-CD110-PE flow cytometry)). Conditions: Jurkat E6.1 cells infected with lentiviral particles, analysed after 48 h.
Assay type: cell-based, human

Expression of CrGFR (PE conjugated anti-CD110 antibody), low expression profile:
B1
B2
B3
